From PubChem BioAssay AID224 (DTP/NCI, 2004) come the findings set out here.

Molecules are shown by their SMILES. The list is a part of this screen's results and no random one: it gathers some chemical classes. Other doses and runs of a compound may be missing. T/C: endpoint of the treated group in % of that of the vehicle group. Where survival is the endpoint, this PubChem deposit counts one and a half times the control or more as active, and values a quarter to a half above the control carry no call in these data; other NCI protocols may use other cut-offs. Some T/C values are marked as having no survivor count here; that says nothing about deaths at the dose. Schedule codes are those of the source, taken here to give the interval after Q, in days (D) or hours (H), and the number of doses after X. Some schedule codes hold Z or #, which are not explained here. Some entries were tested several times; the values are given in rising order.

This assay relates to P335 leukemia ip, BDF1 mice, survival T/C %. The experiment in a line: NCI In Vivo Anticancer Drug Screen. Data for tumor model P335 Leukemia (intraperitoneal) in B6D2F1 (BDF1) mice. The conditions noted are these: T/C endpoint: mean survival time, schedule: Q01DX Z (ip), higher T/C = longer survival. As to the method: The antitumor activity of compounds was measured in mice bearing transplantable tumors. Survival or tumor size were measured and the results are expressed as the measurement made in the treated group (T) divided by the measurement made in the vehicle treated control group (C). The tumor model used in this assay is P335 Leukemia (intraperitoneal) in B6D2F1 (BDF1) mice

[1] abbreviates: dose: 0.62 mg/kg/injection, vehicle: carboxymethylcellulose (CMC).
[2] abbreviates: dose: 1.25 mg/kg/injection, vehicle: carboxymethylcellulose (CMC).

As for `O=C(O)CN(CCCl)CCCl`, the T/C reads like this: (dose: 0.5 mg/kg/injection, vehicle: saline) 105 % of control [survivor count not shown]; (dose: 1.0 mg/kg/injection, vehicle: saline) 87 % of control [survivor count not shown]; (dose: 2.0 mg/kg/injection, vehicle: saline) 111 % of control [survivor count not shown]; (dose: 4.0 mg/kg/injection, vehicle: saline) 94 % of control [survivor count not shown].

Turning to `CC(C(=O)O)N(CCCl)CCCl` (configuration not stated), the T/C runs as follows: (dose: 0.31 mg/kg/injection, vehicle: carboxymethylcellulose (CMC)) 96 % of control [survivor count not shown]; under setting [1], 100 % of control [survivor count not shown]; under setting [2], 87 % of control [survivor count not shown].

Regarding `ClCCNCCCl`, the T/C is, setting by setting: (dose: 3.1 mg/kg/injection, vehicle: carboxymethylcellulose (CMC)) 102 % of control [survivor count not shown]; (dose: 6.25 mg/kg/injection, vehicle: carboxymethylcellulose (CMC)) 86 % of control [survivor count not shown]; (dose: 12.5 mg/kg/injection, vehicle: carboxymethylcellulose (CMC)) 92 [survivor count not shown] and 127 % of control [survivor count not shown]; (dose: 25.0 mg/kg/injection, vehicle: carboxymethylcellulose (CMC)) 98 [survivor count not shown], 99 [survivor count not shown], 124 % of control [survivor count not shown]; (dose: 50.0 mg/kg/injection, vehicle: carboxymethylcellulose (CMC)) 102 [survivor count not shown] and 135 % of control [survivor count not shown].

On to `NC(Cc1cccc(N(CCCl)CCCl)c1)C(=O)O` (configuration not stated), for which the T/C under setting [1] was 103 % of control [survivor count not shown] and the T/C under setting [2] was 111 % of control [survivor count not shown].

For `ClCCN(CCCl)Cc1nc2ccccc2[nH]1`, the T/C was 87 % of control [survivor count not shown] under setting [2]; 88 % of control [survivor count not shown] (dose: 2.5 mg/kg/injection, vehicle: carboxymethylcellulose (CMC)); 103 % of control [survivor count not shown] (dose: 5.0 mg/kg/injection, vehicle: carboxymethylcellulose (CMC)).
